Data on one substance can be found in publication PMC12635215.

By UniProt entry, the sequences of proteins in these tests, tags left out.
UniProt O43303: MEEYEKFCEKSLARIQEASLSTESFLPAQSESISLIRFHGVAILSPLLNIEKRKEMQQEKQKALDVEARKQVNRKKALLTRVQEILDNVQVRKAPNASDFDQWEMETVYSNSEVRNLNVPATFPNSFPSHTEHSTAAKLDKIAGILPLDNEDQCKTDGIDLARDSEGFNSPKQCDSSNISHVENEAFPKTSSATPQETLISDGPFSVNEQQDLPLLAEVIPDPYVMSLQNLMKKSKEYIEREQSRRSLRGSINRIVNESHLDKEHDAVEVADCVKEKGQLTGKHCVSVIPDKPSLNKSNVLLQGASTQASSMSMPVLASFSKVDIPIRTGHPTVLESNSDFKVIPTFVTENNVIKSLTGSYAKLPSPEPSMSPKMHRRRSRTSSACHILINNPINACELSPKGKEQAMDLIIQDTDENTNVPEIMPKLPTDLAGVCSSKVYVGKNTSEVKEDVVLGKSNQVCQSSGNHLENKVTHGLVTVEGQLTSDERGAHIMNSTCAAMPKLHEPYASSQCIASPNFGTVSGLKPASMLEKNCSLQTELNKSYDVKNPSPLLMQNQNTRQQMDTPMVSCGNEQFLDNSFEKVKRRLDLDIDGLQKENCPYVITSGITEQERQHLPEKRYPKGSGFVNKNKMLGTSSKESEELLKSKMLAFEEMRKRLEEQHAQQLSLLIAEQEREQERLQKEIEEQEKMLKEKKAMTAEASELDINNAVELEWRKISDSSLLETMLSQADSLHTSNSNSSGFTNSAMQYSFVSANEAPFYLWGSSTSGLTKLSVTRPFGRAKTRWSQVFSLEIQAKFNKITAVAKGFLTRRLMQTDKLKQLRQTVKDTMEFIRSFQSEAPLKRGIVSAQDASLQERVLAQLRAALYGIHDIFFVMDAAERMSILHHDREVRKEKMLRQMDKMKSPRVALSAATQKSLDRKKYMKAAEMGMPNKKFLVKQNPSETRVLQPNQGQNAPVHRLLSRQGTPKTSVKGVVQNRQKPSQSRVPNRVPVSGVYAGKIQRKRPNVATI
UniProt Q8TD16: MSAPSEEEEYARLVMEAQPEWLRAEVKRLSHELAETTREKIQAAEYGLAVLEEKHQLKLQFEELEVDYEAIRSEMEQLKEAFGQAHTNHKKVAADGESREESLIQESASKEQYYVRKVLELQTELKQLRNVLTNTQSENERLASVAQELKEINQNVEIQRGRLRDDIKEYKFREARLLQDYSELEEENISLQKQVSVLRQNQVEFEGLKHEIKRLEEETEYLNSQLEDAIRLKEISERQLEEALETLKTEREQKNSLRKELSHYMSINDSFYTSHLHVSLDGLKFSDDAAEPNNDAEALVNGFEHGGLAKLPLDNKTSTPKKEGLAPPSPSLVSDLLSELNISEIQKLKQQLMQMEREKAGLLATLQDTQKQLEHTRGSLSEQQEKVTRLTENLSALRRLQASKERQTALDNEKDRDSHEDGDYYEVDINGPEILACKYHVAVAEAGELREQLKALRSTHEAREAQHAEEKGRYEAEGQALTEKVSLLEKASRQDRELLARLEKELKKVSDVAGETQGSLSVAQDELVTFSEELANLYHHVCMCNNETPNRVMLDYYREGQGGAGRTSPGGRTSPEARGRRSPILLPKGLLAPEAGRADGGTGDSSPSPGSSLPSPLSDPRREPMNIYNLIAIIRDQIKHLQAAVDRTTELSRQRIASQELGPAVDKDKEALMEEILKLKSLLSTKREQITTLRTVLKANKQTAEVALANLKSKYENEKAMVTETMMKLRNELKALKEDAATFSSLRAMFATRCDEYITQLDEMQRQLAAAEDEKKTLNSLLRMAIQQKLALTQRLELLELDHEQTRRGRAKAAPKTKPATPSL

These are yes or no findings as the source states them, for the method shown. Binding seen in cells or lysates may run through a third protein. Some results given as binding are weak or reduced against the parent protein; the word gives no strength.

The assay deals with centriolar coiled-coil protein 110 (CP110), endogenous (human (endogenous in RPE-1)) (UniProt O43303). As to the kind of experiment: co-IP; endogenous proteins; wild-type RPE-1 cells in normal serum medium, lysed in TBSN buffer; anti-BICD2 or anti-CP110 antibody at 4 °C overnight, then Protein A/G Sepharose beads 4 h; immunoblotting. On the technique in general: In western blotting, separated proteins are transferred to a membrane and probed.

As to “bicaudal D cargo adaptor 2 (BICD2), endogenous (from UniProt Q8TD16 1-824)”, the binding entry is “binds”.
